From patent US20260018245A1, “SYSTEMS AND METHODS FOR IDENTIFYING AND TARGETING COLLATERAL LETHAL GENES” (The Regents of the University of Michigan, priority 2022, published 2026)
At least one structure is not confirmed: it was looked up by name or label, or the drawing left a doubt.

Tests used:
[1] = tested on: UQCR11-null (CAOV3, HEYA8, OVCAR8) and UQCR11-intact (SKOV3) ovarian cancer cells; assay: Viability of parental ovarian cancer lines treated with MTHFD2 inhibitor (GI50); assay type: cell-based; conditions: UQCR11-null vs UQCR11-intact
[2] = tested on: isogenic SKOV3 cells (shScramble, shUQCR11); assay: Nucleotide profiling after MTHFD2 inhibitor vs vehicle; assay type: cell-based
Description: FIG. 14 Analysis of global metabolomics and nucleotide pathways of ovarian cancer lines with and without UQCR11 deletion. (a) Pathway enrichment analysis using metabolic pathways in the KEGG database comparing UQCR11-intact and -null ovarian cancer lines from the CCLE panel (n=50). Pathway coverage represents fraction of metabolites in the KEGG pathway that have available data. Data analyzed using weighted z-test for pathway analysis built into MetaboAnalyst 5.0. (b) Pathway enrichment analysis on all metabolite concentrations measured in SKOV3 (UQCR11-intact) and OVCAR8, HeyA8 and CAOV3 (UQCR11-null) cells for metabolites involved in nucleotide metabolism. Pathway coverage, that is, percentage of metabolites measured from each pathway are represented by a gradient color-scale. […] Data analyzed using weighted z-test for pathway analysis built into MetaboAnalyst 5.0. […] Data are combined from two independent experiments and analyzed using two-sample t-tests corrected for multiple hypothesis testing, built into MetaboAnalyst 5.0. […] (d) Metabolites involved in pyrimidine synthesis and salvage are measured in SKOV3 (UQCR11-intact) and OVCAR8, HeyA8 and CAOV3 (UQCR11-null) cells and overlaid onto the pyrimidine metabolic pathway map. […] Data are combined from two independent experiments and analyzed using two-sample t-tests corrected for multiple hypothesis testing, built into MetaboAnalyst 5.0 (n=6). […]

## Cc1c(N2CCN(C)[C@@H](C)C2)ccc2c3c(c(=O)oc12)CN(C(=O)c1ccc(NS(C)(=O)=O)c(OC(F)(F)F)c1)CC3 [DS18561882]
[1]
  fold lower concentration causing 50% cell growth inhibition (GI50), UQCR11-null compared with UQCR11-intact cells: six- to 20
[2]
  differentially abundant metabolites (nucleotides): ten out 49
